Laboratory results published in PubChem BioAssay AID248 (DTP/NCI, 2004).
The list does not hold the whole screen: it gathers tests that were run many times, whatever their T/C, doses with no T/C, and many T/C values between a quarter and a half above the control. Other doses and runs of a compound stand elsewhere. T/C: endpoint of the treated group in % of that of the vehicle group. Some doses have a count of surviving animals in place of a T/C: the source files T/C as zero there, which appears to mark a toxic dose or a test without result, not a measured value. Some survivor counts are full or nearly so, which does not show that the dose was tolerated: survival well below the control is almost never listed, so the zero probably covers shortened survival too. Counts of survivors are from the toxicity check (mostly the fifth day) where no day follows; animals may have died later. Schedule codes are those of the source, taken here to give the interval after Q, in days (D) or hours (H), and the number of doses after X. For survival time, the PubChem record calls one and a half times the control and up active, and a quarter to a half above the control has no call in these data; cut-offs in other NCI protocols can differ. Some entries hold several experiments; the results are listed from low to high. Some schedule codes hold Z or #, which are not explained here.

Test system: L1210 leukemia ip in BDF1 mice, survival T/C
Assay: NCI In Vivo Anticancer Drug Screen. Data for tumor model L1210 Leukemia (intraperitoneal) in B6D2F1 (BDF1) mice
Details: T/C endpoint: mean survival time, higher T/C = longer survival
[1] = dose: 400.0 mg/kg/injection, schedule: Q01DX009 (ip), vehicle: saline with Tween-80
[2] = dose: 100.0 mg/kg/injection, schedule: Q04DX002 (ip), vehicle: saline with Tween-80

**Q.** What does the source list for `Nc1nc(F)nc2c1ncn2C1OC(CO)C(O)C1O` (stereo unspecified)?
**A.** T/C (dose: 0.5 mg/kg/injection, schedule: Q01DX009 (ip), vehicle: saline): 98, 101, 103, 104 % of control; T/C (dose: 1.0 mg/kg/injection, schedule: Q01DX009 (ip), vehicle: saline): 101, 109, 110, 111 % of control; T/C (dose: 2.0 mg/kg/injection, schedule: Q01DX009 (ip), vehicle: saline): 98, 106, 109, 127 % of control; T/C (dose: 4.0 mg/kg/injection, schedule: Q01DX009 (ip), vehicle: saline): 101, 103, 104, 108 % of control; T/C (dose: 100.0 mg/kg/injection, schedule: Q06HX012 (ip), vehicle: saline with Tween-80, evaluated on day 5): 180 % of control; T/C (dose: 100.0 mg/kg/injection, schedule: Q06HX012 (ip), vehicle: saline with Tween-80, evaluated on day 60): 154, 179, 180 % of control; survivor count (dose: 150.0 mg/kg/injection, schedule: Q03HX024 (ip), vehicle: saline with Tween-80): 4 of 6; T/C (dose: 200.0 mg/kg/injection, schedule: Q01DX009 (ip), vehicle: saline with Tween-80): 138 % of control; survivor count [1]: 7 of 10; survivor count (dose: 500.0 mg/kg/injection, schedule: Q01DX009 (ip), vehicle: saline with Tween-80): 8 of 10; T/C (dose: 500.0 mg/kg/injection, schedule: Q12HX006 (ip), vehicle: saline with Tween-80): 141 % of control

**Q.** What does the source list for `CCCN=C(N)c1ccc(N=C(N)c2ccc(N=C(N)c3ccc(C(N)=NCCC)cc3)cc2)cc1`?
**A.** T/C (dose: 7.5 mg/kg/injection, schedule: Q01DX Z (ip), vehicle: carboxymethylcellulose (CMC)): 138 % of control; T/C (dose: 20.0 mg/kg/injection, schedule: Q01DX Z (ip), vehicle: carboxymethylcellulose (CMC)): 140 % of control

**Q.** `c1ccc(C[S][Sn]([c]2ccccc2)([c]2ccccc2)[c]2ccccc2)cc1` was tested. Which survivor count [2] did it give?
**A.** 1 of 3

**Q.** What about the survivor count (dose: 200.0 mg/kg/injection, schedule: Q04DX002 (ip), vehicle: saline with Tween-80) of the same compound?
**A.** 0 of 3

**Q.** What about the survivor count (dose: 400.0 mg/kg/injection, schedule: Q04DX002 (ip), vehicle: saline with Tween-80) of the same compound?
**A.** 0 of 3

**Q.** Which survivor count (dose: 400.0 mg/kg/injection, schedule: Q04DX003 (ip), vehicle: saline) does the source give for `O=S(=O)(O)c1ccccn1` here?
**A.** 2 of 6

**Q.** With `COc1nncc(-c2cnnc(OC)n2)n1` as the compound, how does the survivor count (dose: 50.0 mg/kg/injection, schedule: Q04DX002 (ip), vehicle: Klucel (hydroxypropylcellulose) (HPC)) read?
**A.** 3 of 3

**Q.** What about the survivor count (dose: 100.0 mg/kg/injection, schedule: Q04DX002 (ip), vehicle: Klucel (hydroxypropylcellulose) (HPC)) of the same compound?
**A.** 0 of 3

**Q.** And the survivor count (dose: 200.0 mg/kg/injection, schedule: Q04DX002 (ip), vehicle: Klucel (hydroxypropylcellulose) (HPC))?
**A.** 0 of 3

**Q.** With `NC(=O)C[n+]1cccc(C(=O)Nc2ccc(Cl)cc2)c1` as the compound, how does the survivor count (dose: 400.0 mg/kg/injection, schedule: Q04DX003 (ip), vehicle: saline with Tween-80) read?
**A.** 3 of 6

**Q.** Which survivor count [2] does the source give for `O=C1OC(/C=C/c2ccccc2)=NC/1=C\c1cc(Br)ccc1O` here?
**A.** 3 of 3

**Q.** Which results are given for `FCCNCCF`?
**A.** survivor count (dose: 20.0 mg/kg/injection, schedule: Q01DX001 (ip), vehicle: saline): 0 of 4; survivor count (dose: 40.0 mg/kg/injection, schedule: Q01DX001 (ip), vehicle: saline): 0 of 4; survivor count (dose: 80.0 mg/kg/injection, schedule: Q01DX001 (ip), vehicle: saline): 0 of 4; survivor count (dose: 100.0 mg/kg/injection, schedule: Q01DX001 (ip), vehicle: saline): 0 of 4; survivor count (dose: 200.0 mg/kg/injection, schedule: Q01DX001 (ip), vehicle: saline): 0 of 4; survivor count (dose: 400.0 mg/kg/injection, schedule: Q01DX001 (ip), vehicle: saline): 0 of 4

**Q.** With `S=c1nc2ccccn2c(=S)n1-c1ccccn1` as the compound, how does the survivor count (dose: 400.0 mg/kg/injection, schedule: Q01DX001 (ip), vehicle: saline with Tween-80) read?
**A.** 0 of 6

**Q.** With `CC(=O)c1cccc(NC(=O)Oc2cc(C)c(Cl)c(C)c2)c1` as the compound, how does the survivor count [1] read?
**A.** 6 of 6

**Q.** With `CC1(C)N=C(c2ccccc2)C(c2ccccc2)=N1` as the compound, how does the survivor count (dose: 400.0 mg/kg/injection, schedule: Q01DX009 (ip), vehicle: Klucel (hydroxypropylcellulose) (HPC)) read?
**A.** 3 of 6
